This passage reports activity change, negative = inhibition results from PubChem BioAssay AID1053173 (Broad Institute, 2014).

By UniProt entry, the sequences of proteins in these tests, tags left out. Where a name states a change or a piece, a line headed by the entry shows the natural chain unless it says otherwise.
UniProt O96028: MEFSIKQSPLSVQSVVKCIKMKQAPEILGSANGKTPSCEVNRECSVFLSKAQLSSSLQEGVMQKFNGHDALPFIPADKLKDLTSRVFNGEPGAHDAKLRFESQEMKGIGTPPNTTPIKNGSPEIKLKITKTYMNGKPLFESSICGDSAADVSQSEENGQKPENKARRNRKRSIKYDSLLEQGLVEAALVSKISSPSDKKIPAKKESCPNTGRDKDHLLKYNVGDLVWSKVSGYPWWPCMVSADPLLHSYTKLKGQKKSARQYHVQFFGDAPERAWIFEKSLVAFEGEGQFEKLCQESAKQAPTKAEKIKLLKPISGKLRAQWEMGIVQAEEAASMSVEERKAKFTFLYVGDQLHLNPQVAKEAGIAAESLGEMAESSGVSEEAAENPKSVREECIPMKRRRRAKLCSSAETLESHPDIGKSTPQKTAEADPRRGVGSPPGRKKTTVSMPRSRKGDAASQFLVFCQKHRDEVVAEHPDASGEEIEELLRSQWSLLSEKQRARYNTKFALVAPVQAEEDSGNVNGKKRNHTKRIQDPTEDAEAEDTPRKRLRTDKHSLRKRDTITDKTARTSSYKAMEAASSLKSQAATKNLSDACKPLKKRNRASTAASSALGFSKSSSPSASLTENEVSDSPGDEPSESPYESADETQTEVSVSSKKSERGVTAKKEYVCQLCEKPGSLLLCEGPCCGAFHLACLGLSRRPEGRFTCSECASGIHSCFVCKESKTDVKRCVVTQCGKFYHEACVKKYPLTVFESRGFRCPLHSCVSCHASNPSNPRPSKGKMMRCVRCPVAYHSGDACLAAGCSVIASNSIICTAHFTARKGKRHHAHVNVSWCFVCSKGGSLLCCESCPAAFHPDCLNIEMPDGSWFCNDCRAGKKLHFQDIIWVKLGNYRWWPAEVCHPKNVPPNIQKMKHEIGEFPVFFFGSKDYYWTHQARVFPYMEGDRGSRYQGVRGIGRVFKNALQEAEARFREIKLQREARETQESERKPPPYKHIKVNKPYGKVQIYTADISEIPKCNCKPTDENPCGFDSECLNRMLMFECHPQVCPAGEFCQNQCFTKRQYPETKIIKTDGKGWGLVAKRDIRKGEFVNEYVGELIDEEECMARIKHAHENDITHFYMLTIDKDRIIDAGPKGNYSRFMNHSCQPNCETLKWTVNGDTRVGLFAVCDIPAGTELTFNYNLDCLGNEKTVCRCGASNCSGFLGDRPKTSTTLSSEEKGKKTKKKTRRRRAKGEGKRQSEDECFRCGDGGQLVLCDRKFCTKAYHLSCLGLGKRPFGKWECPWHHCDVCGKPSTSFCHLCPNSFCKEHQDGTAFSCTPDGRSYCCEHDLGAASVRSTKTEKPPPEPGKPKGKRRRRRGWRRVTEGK

Screen size: about 1,500 compounds; about 390 (26%) were called active. The rule behind the calls is not given here. This is a selection; strong and weak results do not stand in their true shares. Entries with a potency or affinity are not part of this list.

This experiment addresses Histone-lysine N-methyltransferase NSD2 (Homo sapiens) (UniProt O96028). Nature of the experiment: blockers of NSD2 H4 peptide methylation – biochemical, AlphaScreen, cherry-picked samples, dose response (AID 1053173).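 Note: 0% = neutral control wells and -100% = positive control wells on each plate.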 Conditions: 120 min; at 10 µM (top of the series).
On to `O=C1NC(=O)C(Sc2ccccc2[N+](=O)[O-])C(=O)N1`, for which the activity change, negative = inhibition was inactive: -5.49%.

`CC(C)n1c(=O)c(C=Nc2ccc(S(N)(=O)=O)cc2)c(O)n(Cc2ccco2)c1=O`: the activity change, negative = inhibition was inactive: -1.36%.

For `COCCCNC(=O)c1c(NC(=O)c2ccco2)n(Cc2ccccc2)c2nc3ccccc3nc12`, the activity change, negative = inhibition was inactive: 3.29%.

For the compound `Cc1ccc(N2C(=O)NC(=O)/C(=C/c3ccc(OC(=O)c4cccs4)cc3)C2=O)cc1`, the activity change, negative = inhibition was inactive: -2.22%.

As to `Cn1c(=O)[nH]c2nncnc2c1=O`, the activity change, negative = inhibition is inactive: -1.88%.

Take `CCNC(=S)NCCC1=c2ccccc2=N/C1=C\c1c(O)n(C)c(=O)n(C)c1=O`: the activity change, negative = inhibition was inactive: -4.12%.

On to `Nc1c(C(=O)NC2CCCC2)c2nc3ccccc3nc2n1CC1CCCO1` (stereo not given), for which the activity change, negative = inhibition was inactive: 4.53%.

Regarding `O=C1NC(=O)N(c2ccccc2)C(=O)/C1=C/c1ccoc1`, the activity change, negative = inhibition is inactive: -4.29%.

Take `CC(=O)N(C)C1=Nc2ccc(Cl)cc2C(c2ccccc2)=[N+]([O-])C1`: the activity change, negative = inhibition was inactive: -2.62%.

In the case of `Cn1c(O)c(/C=C/C=Nc2ccccc2)c(=O)n(C)c1=S`, the activity change, negative = inhibition is inactive: -0.067%.

On to `Cc1c(C(=O)O)cccc1-n1c(C)cc(/C=C2\C(=O)NC(=O)N(c3ccc4c(c3)OCO4)C2=O)c1C`, for which the activity change, negative = inhibition is inactive: -12.3%.

With `CCCCCn1c(N)c(C(=O)NCc2cccs2)c2nc3ccccc3nc21`, the activity change, negative = inhibition is inactive: 0.109%.

For the compound `CC1(C)CC(=O)C2=C(C1)NC(=O)C21C(C(=O)OC(C)(C)C)=C(N)Oc2ccc(Br)cc21` (stereo not given), the activity change, negative = inhibition is inactive: -0.106%.

As for `COCCN1C(=O)/C(=C/c2c(OC)cc(OC)cc2OC)C(=O)N(c2ccccc2)C1=O`, the activity change, negative = inhibition was inactive: -4.09%.

Take `CC(C)c1ccc(N2C(=O)NC(=O)/C(=C\C=C\c3ccco3)C2=O)cc1`: the activity change, negative = inhibition was inactive: -11.6%.

`Cc1ccc(N2C(=O)NC(=O)/C(=C/c3cnn(-c4ccc(C)cc4)c3)C2=O)cc1`: the activity change, negative = inhibition was inactive: -8.44%.

For the compound `CCOc1cc(/C=C2\C(=O)NC(=O)N(CCc3ccc(F)cc3)C2=O)ccc1O`, the activity change, negative = inhibition is inactive: -4.5%.

As for `Fc1ccc(Cn2nnnc2C(c2ccc(Cl)cc2)N2CC=C(c3ccc(F)cc3)CC2)cc1` (stereo not given), the activity change, negative = inhibition is inactive: -4.62%.

Turning to `COc1cc(O)cc2c1C(=O)OC(C)CCCC(=O)CCC/C=C\2` (stereo not given), the activity change, negative = inhibition is inactive: 1.48%.

`CCCCn1c(N)c(C(=O)OCC2CCCO2)c2nc3ccccc3nc21` (stereo not given): the activity change, negative = inhibition was inactive: 3.04%.

On to `COCCNC(=O)c1c(NC(=O)c2ccco2)n(Cc2ccccc2)c2nc3ccccc3nc12`, for which the activity change, negative = inhibition is inactive: 13.2%.

As for `Clc1ccccc1Nc1ncnc(-n2cccc2)n1`, the activity change, negative = inhibition was inactive: -2.42%.

With `CCN1C[C@]2(CO)CC[C@H](OC)[C@@]34C2[C@H](OC)[C@@](O)(C13)[C@@]1(O)C[C@H](OC)[C@H]2C[C@@H]4[C@@H]1[C@H]2OC`, the activity change, negative = inhibition is inactive: -5.24%.

Consider `O=C(c1cc2ccccc2oc1=O)N1CCC2(CC1)OCCO2`, for which the activity change, negative = inhibition was inactive: -2.87%.

Consider `COCCCn1c(N)c(C(=O)OCCOC)c2nc3ccccc3nc21`, for which the activity change, negative = inhibition was inactive: -1.56%.

Turning to `COc1cccc(N2C(=O)NC(=O)/C(=C\c3ccc([N+](=O)[O-])s3)C2=O)c1`, the activity change, negative = inhibition is inactive: -13.7%.

`O=[N+]([O-])c1ccc(N2CCCC2)c2ccncc12`: the activity change, negative = inhibition is inactive: -4.53%.

On to `CN(C)C(CNC(=O)Cc1ccc(Br)cc1)c1ccccc1` (stereo not given), for which the activity change, negative = inhibition is inactive: -2.02%.

In the case of `CCCCn1c(NS(=O)(=O)c2ccccc2)c(C(=O)OCC)c2nc3ccccc3nc21`, the activity change, negative = inhibition is inactive: -0.46%.

Take `O=C1NC(=S)NC(=O)C1=Cc1ccc(Br)s1`: the activity change, negative = inhibition was inactive: -5.38%.
